# Measurements reported in publication PMC5893553.
# Protein sequences, listed by entry. Tags and fused reporters are not part of them.
# UniProt P51608: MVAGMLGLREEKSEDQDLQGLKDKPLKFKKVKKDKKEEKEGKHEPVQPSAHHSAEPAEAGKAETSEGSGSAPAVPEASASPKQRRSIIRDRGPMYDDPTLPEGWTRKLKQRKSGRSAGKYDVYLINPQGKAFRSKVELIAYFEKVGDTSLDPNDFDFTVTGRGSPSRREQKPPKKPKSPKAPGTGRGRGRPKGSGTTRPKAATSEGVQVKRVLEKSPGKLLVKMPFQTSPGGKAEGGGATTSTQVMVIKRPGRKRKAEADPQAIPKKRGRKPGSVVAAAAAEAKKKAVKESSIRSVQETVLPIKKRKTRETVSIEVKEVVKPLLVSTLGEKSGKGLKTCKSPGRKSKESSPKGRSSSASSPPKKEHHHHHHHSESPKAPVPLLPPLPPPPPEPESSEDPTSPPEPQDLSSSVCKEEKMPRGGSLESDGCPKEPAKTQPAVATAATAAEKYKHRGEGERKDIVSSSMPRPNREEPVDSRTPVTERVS
# Results are given in words; binding and its absence hold for the method and conditions named. In cells and extracts the contact can be indirect. Some results given as binding are weak or reduced against the parent protein; the word gives no strength. For some assays here: Where a sequence is shown, tags or fusion partners need not be part of it.
# What was measured:
# [1] = molecular target: T1, His-tagged human Deaf1 (pcDNA3-His-human Deaf1) (human) (UniProt O75398); experiment: pull-down; lysate of co-transfected SKN-SH cells (500 μg/500 μL, FLAG buffer) rotated 1 hr at 4 °C with cobalt beads that bind the His tag of Deaf1; Western blot for FLAG
# T1 sequence: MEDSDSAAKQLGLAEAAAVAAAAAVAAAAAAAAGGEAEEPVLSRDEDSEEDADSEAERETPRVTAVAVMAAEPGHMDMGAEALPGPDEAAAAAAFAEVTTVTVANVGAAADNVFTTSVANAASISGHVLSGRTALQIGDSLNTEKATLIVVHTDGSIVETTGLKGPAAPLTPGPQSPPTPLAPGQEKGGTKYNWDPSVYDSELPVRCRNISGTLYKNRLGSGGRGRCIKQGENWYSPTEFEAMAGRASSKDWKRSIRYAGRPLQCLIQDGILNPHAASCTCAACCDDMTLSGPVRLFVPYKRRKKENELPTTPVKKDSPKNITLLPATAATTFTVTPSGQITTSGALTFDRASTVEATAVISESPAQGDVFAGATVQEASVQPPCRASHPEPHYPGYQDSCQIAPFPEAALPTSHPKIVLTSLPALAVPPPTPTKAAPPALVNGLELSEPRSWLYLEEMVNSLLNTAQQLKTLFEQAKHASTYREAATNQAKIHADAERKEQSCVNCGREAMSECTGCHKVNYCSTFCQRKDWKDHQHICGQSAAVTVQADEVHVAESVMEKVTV
# [2] = molecular target: T2, endogenous Deaf1 of SKN-SH cells (human (endogenous in SKN-SH)) (UniProt O75398); experiment: co-IP; endogenous proteins; lysates of cells and brain tissue (1500 μg/1 mL) with anti-Deaf1 rabbit antibody, pre-immune IgG or anti-MeCP2 antibody 16 h at 4 °C, protein A-Sepharose; Western blot for MeCP2; Deaf1 −/− MEFs and Deaf1 KO hippocampus as controls
# T2 sequence: T1 sequence
Substance,binding [1],binding [2]
FLAG-tagged human MeCP2 (pFLAG-human MeCP2) (from UniProt P51608 1-486),binds,–
endogenous MeCP2 of SKN-SH cells (from UniProt P51608 1-486),–,binds
